These results are taken from publication PMC6834431.

The chains behind the UniProt entries cited, without tags or fusion partners. Residues count along the entry.
UniProt A6NMZ7, residues 20-2263: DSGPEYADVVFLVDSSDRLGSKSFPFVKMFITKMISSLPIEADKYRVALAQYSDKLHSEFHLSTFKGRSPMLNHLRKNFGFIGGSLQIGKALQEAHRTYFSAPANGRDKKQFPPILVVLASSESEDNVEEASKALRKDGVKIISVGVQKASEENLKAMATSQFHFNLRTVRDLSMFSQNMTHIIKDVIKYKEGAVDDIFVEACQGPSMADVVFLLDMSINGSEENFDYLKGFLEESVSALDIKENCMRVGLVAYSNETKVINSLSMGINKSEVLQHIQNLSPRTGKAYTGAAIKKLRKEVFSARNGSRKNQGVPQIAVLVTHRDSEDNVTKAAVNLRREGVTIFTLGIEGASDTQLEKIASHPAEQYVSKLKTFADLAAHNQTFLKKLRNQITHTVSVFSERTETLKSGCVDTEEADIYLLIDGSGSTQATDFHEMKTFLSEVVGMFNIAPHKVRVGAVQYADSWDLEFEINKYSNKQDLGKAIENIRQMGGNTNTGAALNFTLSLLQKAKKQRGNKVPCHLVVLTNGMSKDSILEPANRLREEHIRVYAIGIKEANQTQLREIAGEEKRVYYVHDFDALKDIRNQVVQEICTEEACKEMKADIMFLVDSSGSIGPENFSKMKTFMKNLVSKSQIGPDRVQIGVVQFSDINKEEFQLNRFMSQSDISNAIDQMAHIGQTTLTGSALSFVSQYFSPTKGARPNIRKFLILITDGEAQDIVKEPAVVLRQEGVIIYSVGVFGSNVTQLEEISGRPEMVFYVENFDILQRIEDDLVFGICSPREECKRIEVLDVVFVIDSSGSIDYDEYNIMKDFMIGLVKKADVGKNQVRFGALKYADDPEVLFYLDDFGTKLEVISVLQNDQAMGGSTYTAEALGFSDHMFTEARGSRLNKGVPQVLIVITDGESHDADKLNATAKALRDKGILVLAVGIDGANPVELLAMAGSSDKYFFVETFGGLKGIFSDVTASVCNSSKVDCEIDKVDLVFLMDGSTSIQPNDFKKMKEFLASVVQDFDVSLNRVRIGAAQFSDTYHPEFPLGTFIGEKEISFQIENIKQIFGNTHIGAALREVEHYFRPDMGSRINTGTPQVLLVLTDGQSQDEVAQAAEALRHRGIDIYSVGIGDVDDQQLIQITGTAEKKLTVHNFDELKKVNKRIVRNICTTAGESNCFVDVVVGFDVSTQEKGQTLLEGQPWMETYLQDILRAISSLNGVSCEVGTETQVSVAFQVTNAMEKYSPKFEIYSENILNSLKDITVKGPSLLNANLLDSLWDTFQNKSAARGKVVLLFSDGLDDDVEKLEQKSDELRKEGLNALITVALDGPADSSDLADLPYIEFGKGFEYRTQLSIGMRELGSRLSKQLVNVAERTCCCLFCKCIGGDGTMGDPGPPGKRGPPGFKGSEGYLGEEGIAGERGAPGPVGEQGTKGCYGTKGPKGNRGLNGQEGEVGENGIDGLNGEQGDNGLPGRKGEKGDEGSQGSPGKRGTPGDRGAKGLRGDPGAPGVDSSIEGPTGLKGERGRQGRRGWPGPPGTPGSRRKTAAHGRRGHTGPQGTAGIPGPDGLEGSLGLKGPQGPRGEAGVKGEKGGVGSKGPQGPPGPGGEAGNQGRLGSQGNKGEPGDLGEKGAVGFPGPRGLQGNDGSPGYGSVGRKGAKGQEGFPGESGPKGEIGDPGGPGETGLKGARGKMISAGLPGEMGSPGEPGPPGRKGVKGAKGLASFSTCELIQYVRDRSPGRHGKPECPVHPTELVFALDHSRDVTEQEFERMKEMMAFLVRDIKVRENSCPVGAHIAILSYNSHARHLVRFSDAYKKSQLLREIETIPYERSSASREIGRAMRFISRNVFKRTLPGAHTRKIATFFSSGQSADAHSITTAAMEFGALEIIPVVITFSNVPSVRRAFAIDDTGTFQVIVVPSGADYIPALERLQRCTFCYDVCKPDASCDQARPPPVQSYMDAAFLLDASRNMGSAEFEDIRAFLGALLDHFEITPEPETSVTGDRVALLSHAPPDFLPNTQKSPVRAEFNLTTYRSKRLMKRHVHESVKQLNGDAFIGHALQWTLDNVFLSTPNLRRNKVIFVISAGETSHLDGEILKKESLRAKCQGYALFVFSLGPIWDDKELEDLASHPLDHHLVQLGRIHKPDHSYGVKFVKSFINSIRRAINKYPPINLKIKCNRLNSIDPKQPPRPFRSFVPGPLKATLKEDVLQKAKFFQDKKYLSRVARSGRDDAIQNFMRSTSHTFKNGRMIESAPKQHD

This assay addresses T1, prolyl-4-hydroxylase alpha polypeptide III (P4HA3) (UniProt Q7Z4N8).
T1 sequence: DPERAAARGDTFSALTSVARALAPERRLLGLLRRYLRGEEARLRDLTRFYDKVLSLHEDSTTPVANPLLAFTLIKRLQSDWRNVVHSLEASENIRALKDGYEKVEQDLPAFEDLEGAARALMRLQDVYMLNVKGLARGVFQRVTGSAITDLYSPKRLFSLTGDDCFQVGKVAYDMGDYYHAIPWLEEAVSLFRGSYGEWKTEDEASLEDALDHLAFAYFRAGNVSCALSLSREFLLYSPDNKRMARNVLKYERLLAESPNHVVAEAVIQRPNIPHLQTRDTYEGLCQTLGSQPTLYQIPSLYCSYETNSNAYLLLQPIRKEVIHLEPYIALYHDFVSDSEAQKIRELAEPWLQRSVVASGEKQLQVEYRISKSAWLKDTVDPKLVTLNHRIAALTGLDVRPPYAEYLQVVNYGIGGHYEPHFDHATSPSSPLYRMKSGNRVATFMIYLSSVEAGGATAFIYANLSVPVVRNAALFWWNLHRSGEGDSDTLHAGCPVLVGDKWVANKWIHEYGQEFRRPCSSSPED
Nature of the assay: co-IP; co-immunoprecipitation (Figure 5C, 5D); cells, precipitating antibody and conditions not stated.

No constants are given. Whether binding was seen depends on the method and setting. In cells and extracts the contact can be indirect. Some results given as binding are weak or reduced against the parent protein; the word gives no strength.

For the substance “collagen type VI alpha 6 (COL6A6) (from UniProt A6NMZ7 20-2263)”, the binding result was “binds”.
